Experimental data published in publication PMC7793253, “CEP290 is essential for the initiation of ciliary transition zone assembly” (PLoS Biology, 2020).

Target: T1, DZIP1-GFP (Drosophila) (UniProt Q9VC70)
T1 sequence: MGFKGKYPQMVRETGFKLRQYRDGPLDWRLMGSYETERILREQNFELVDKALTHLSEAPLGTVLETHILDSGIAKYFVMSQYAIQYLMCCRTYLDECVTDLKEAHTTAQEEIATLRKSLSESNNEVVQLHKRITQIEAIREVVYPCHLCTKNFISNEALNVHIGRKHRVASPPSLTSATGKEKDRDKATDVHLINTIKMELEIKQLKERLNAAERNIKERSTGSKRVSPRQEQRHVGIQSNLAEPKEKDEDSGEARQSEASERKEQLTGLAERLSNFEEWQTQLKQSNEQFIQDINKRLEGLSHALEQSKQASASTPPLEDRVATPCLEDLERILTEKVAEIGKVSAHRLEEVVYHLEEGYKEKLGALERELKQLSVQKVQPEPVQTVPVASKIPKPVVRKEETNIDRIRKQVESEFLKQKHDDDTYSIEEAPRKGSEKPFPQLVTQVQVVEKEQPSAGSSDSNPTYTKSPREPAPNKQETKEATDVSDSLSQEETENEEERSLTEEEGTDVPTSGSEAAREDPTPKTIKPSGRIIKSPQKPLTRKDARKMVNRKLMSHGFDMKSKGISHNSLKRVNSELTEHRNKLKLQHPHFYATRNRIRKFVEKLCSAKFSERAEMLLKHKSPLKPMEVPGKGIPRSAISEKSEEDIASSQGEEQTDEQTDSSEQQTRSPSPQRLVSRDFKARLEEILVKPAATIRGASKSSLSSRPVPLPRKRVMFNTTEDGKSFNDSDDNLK
Experiment: co-IP; Drosophila S2 cells transiently transfected, 48 h; lysis in 10 mM Tris pH 7.5, 150 mM NaCl, 0.5 mM EDTA, 0.5% NP-40; anti-GFP nanobody agarose (GFP-trap) beads, 1 h at 4°C; blot with anti-GFP and anti-HA

binding: binds
Substance: CBY-HA (Drosophila)

Results are given in words; binding and its absence hold for the method and conditions named. Binding seen in cells or lysates may run through a third protein. A result given as binding can be weak or reduced; the word gives no strength. Sequences can lack the tags named with a protein.
